PubChem BioAssay AID1671195 – Yale University | 2021

Test: 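Knockdowns that increase or decrease uptake of fluorescent LDL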 (primary screen)
Cells: human Huh7 hepatoma cells
Reagents: siRNA pool against human genes, 18 nM
Timing: about 2 to 2.5 days of knockdown, then 8 h LDL uptake
Challenge: DiI-labelled LDL at 30 µg/ml for 8 h, in lipoprotein-deficient serum medium
Measurement: 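Fluorescent LDL signal imaged in cells, scaled to the plate median, robust z-score for each replicate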
Reading the numbers: robust z-score: higher = more LDL uptake after knockdown
Rule for the call: 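Active when two or more replicates show a robust z-score above 2 or below -2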
The deposit covers about 22,000 reagents; below is a part drawn at random. About 1,510 of all reagents (6.9%) count as active. 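Active includes knockdowns raising or lowering LDL uptake; positive z-scores mean more uptake, negative mean less.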 Reagents against one gene are numbered here. No sequences are given here.

NADSYN1 showed robust z-score, replicate 1 = -1.08; robust z-score, replicate 2 = -0.0938; robust z-score, replicate 3 = 0.594; inactive. For BEST3 #1 the deposit lists robust z-score, replicate 1 = 1.32; robust z-score, replicate 2 = 1.65; robust z-score, replicate 3 = 1.64; inactive. For BEST3 #2, the values are robust z-score, replicate 1 = -0.863; robust z-score, replicate 2 = -0.359; robust z-score, replicate 3 = -1.03; inactive. HCN4 gave robust z-score, replicate 1 = -0.441; robust z-score, replicate 2 = -0.423; robust z-score, replicate 3 = -0.636; inactive. Knock-down of LOC440472 (retired record) resulted in: robust z-score, replicate 1 = -0.799; robust z-score, replicate 2 = -1.08; robust z-score, replicate 3 = -0.952; inactive. Against YY1, the values are robust z-score, replicate 1 = 2.41; robust z-score, replicate 2 = 1.36; robust z-score, replicate 3 = 1.54; inactive.

LINC01602 scored robust z-score, replicate 1 = 0.497; robust z-score, replicate 2 = 0.15; robust z-score, replicate 3 = 1.04; inactive. For FNTB the deposit lists robust z-score, replicate 1 = -1.05; robust z-score, replicate 2 = -0.913; robust z-score, replicate 3 = -0.696; inactive.

Ordered by “robust z-score, replicate 3” (low to high): some entries from above.
FNTB | robust z-score, replicate 1 = -1.05; robust z-score, replicate 2 = -0.913; robust z-score, replicate 3 = -0.696; activity call = inactive
LINC01602 | robust z-score, replicate 1 = 0.497; robust z-score, replicate 2 = 0.15; robust z-score, replicate 3 = 1.04; activity call = inactive

Additional entries follow:
ZZEF1 gave robust z-score, replicate 1 = 1.48; robust z-score, replicate 2 = -1.19; robust z-score, replicate 3 = 0.935; inactive. For LOC440069 (retired record), the values are robust z-score, replicate 1 = 0.0942; robust z-score, replicate 2 = 0.249; robust z-score, replicate 3 = -0.112; inactive. Against TPST2, the entry reads robust z-score, replicate 1 = -2.82; robust z-score, replicate 2 = -2.39; robust z-score, replicate 3 = -2.54; active. SMC2 gave robust z-score, replicate 1 = -0.304; robust z-score, replicate 2 = -0.975; robust z-score, replicate 3 = -0.562; inactive. With knock-down of ZNF215, the screen gave robust z-score, replicate 1 = 0.817; robust z-score, replicate 2 = 1.48; robust z-score, replicate 3 = 0.176; inactive. With knock-down of KIF17, the screen gave robust z-score, replicate 1 = -0.837; robust z-score, replicate 2 = -0.269; robust z-score, replicate 3 = -0.414; inactive.

For LOC402340 (retired record), the entry reads robust z-score, replicate 1 = 1.79; robust z-score, replicate 2 = 0.49; robust z-score, replicate 3 = 2.05; inactive. Against ACOT7, the entry reads robust z-score, replicate 1 = -1.25; robust z-score, replicate 2 = -0.533; robust z-score, replicate 3 = -0.594; inactive.
